Data: the M2OR odorant receptor database
This is a selection; strong and weak results do not stand in their true shares. Calls are pooled over several reports, among them a noisy single-well screen. This is one part of the list.

Columns and labels:
Conditions in all cases: stereoisomer not certain
[1] = tested on: T1, O52R1
T1 sequence (whole entry): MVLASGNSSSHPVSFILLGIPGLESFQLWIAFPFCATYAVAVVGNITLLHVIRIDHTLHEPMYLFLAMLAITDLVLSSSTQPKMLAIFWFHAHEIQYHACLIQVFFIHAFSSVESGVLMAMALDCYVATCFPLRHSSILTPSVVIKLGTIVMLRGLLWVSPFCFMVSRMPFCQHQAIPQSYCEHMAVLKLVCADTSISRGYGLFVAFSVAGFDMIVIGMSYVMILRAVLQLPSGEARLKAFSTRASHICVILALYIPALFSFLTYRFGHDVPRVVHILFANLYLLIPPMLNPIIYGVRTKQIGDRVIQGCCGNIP
Summary of the method: (§1)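 Values were gathered from published papers (main text and supplementary material), with extra details requested from the original authors when needed, and checked for typos and inconsistencies. Each receptor–molecule pair is called responsive (active) if the original authors judged the measured signal statistically different from baseline, and non-responsive (inactive) otherwise. Assay methods varied by source, often transient mammalian cell-line luciferase assays. Recorded details include cell line, G-protein, co-transfected protein and tags.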

[2] = tested on: T2, O52W1
T2 sequence (whole entry): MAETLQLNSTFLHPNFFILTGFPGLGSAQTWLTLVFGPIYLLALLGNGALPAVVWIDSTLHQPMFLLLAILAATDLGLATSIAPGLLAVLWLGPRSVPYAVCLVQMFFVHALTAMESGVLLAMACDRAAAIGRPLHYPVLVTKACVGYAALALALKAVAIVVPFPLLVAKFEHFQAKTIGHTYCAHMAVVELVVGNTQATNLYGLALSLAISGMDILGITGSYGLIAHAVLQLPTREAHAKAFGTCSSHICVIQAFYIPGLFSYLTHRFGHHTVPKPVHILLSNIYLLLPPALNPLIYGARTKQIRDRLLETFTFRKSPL
Summary of the method: as §1

[3] = tested on: T3, O56A3
T3 sequence (whole entry): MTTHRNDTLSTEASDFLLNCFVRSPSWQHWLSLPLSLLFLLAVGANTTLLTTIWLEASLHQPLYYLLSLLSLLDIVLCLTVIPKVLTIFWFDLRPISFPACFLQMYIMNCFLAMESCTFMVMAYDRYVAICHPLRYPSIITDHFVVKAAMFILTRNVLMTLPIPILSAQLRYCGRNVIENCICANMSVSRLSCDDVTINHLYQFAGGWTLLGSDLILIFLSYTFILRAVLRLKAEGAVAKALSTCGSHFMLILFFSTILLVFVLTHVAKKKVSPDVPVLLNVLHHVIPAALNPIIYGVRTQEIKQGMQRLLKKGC
Summary of the method: as §1

[4] = tested on: T4, O56B1
T4 sequence (whole entry): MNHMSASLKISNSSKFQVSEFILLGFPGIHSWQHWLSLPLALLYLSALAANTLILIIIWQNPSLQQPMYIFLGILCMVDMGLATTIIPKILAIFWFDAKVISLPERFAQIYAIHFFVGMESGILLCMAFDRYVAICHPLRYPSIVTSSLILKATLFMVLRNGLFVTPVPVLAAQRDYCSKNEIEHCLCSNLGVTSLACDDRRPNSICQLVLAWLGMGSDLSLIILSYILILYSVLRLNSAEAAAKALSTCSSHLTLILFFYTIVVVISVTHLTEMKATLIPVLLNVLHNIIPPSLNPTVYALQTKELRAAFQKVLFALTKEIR
Summary of the method: as §1

[5] = tested on: T5, O56B4
T5 sequence (whole entry): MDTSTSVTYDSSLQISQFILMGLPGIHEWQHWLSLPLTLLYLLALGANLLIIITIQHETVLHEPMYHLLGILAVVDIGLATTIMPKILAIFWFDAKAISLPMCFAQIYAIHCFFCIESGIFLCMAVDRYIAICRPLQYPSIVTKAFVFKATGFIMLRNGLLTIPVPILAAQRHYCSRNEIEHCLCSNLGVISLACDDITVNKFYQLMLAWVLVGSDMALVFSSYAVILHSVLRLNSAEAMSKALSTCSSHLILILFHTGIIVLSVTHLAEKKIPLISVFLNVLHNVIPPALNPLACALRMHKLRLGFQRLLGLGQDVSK
Summary of the method: as §1

[6] = tested on: T6, O5AC2
T6 sequence (whole entry): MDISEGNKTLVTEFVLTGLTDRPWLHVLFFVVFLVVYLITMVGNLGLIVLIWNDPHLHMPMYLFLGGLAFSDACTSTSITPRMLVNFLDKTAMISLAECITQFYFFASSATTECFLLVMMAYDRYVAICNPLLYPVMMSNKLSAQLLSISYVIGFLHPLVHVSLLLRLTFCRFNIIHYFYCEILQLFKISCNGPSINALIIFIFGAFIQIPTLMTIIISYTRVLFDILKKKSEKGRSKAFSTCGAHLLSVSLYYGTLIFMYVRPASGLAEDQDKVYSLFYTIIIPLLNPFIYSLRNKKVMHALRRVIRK
Summary of the method: as §1

[7] = tested on: T7, O5AK2
T7 sequence (whole entry): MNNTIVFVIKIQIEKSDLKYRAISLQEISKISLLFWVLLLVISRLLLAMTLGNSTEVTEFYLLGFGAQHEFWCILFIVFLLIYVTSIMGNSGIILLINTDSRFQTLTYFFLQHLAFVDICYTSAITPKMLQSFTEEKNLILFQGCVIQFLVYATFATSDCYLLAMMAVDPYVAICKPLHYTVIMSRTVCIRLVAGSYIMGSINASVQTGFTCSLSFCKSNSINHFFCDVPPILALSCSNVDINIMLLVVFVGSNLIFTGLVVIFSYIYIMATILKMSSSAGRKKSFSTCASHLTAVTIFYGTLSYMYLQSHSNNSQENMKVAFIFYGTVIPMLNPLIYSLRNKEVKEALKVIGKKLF
Summary of the method: as §1

[8] = tested on: T8, O5AK3
T8 sequence (whole entry): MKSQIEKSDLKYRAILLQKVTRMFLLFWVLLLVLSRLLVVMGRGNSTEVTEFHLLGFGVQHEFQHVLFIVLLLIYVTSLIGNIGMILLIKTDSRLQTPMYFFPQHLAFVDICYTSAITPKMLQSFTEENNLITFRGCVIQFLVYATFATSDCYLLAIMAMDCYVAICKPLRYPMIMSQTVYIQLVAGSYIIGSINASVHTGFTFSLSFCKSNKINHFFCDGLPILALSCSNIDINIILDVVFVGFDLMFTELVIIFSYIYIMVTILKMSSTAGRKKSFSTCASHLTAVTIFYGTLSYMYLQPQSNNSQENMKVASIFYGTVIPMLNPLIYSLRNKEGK
Summary of the method: as §1

[9] = tested on: T9, O5AL1
T9 sequence (whole entry): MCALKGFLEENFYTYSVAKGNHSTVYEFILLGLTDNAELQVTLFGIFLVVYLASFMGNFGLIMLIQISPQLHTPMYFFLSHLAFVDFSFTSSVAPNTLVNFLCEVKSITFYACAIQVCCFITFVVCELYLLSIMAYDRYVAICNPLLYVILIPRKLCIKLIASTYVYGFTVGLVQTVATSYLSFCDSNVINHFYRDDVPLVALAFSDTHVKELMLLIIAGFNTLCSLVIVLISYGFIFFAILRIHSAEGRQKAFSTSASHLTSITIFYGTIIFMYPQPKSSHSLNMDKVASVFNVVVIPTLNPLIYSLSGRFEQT
Summary of the method: as §1

[10] = tested on: T10, O5AP2
T10 sequence (whole entry): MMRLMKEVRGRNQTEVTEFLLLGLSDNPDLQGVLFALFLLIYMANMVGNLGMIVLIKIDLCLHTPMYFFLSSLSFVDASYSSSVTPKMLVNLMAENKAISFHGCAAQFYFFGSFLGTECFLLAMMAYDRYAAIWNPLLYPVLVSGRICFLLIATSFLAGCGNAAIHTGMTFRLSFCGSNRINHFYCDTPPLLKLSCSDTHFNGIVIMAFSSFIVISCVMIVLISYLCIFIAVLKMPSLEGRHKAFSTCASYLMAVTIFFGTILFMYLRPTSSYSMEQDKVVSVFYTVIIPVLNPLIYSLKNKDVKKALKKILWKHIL
Summary of the method: as §1

[11] = tested on: T11, O5AU1
T11 sequence (whole entry): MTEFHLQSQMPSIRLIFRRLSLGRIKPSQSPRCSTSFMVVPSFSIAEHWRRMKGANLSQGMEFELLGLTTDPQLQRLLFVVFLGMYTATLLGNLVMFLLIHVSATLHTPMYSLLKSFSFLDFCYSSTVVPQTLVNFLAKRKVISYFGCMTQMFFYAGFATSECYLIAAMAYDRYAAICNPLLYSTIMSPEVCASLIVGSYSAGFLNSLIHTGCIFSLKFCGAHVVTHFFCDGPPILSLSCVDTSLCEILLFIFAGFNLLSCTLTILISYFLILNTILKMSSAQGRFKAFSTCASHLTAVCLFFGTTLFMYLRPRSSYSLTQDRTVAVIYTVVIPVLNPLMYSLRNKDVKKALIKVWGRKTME
Summary of the method: as §1

[12] = tested on: T12, O5H14
T12 sequence (whole entry): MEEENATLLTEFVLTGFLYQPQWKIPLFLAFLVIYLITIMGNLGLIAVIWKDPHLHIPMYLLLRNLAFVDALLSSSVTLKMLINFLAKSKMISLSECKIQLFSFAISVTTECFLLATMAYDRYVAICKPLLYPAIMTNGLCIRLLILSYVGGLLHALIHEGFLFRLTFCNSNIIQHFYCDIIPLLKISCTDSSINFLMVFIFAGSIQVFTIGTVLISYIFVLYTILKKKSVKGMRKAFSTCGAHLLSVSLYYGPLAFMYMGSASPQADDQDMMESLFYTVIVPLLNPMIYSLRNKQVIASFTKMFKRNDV
Summary of the method: as §1

[13] = tested on: T13, O6C68
T13 sequence (whole entry): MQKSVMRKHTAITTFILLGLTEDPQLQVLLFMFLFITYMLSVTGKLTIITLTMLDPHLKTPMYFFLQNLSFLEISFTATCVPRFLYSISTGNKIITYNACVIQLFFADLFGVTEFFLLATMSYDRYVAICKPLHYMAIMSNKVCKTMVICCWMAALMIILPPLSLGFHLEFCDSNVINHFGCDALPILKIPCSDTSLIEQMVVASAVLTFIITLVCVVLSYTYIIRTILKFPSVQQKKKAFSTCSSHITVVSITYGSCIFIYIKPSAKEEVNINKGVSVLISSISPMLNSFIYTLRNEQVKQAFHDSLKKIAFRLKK
Summary of the method: as §1

[14] = tested on: T14, O6C70
T14 sequence (whole entry): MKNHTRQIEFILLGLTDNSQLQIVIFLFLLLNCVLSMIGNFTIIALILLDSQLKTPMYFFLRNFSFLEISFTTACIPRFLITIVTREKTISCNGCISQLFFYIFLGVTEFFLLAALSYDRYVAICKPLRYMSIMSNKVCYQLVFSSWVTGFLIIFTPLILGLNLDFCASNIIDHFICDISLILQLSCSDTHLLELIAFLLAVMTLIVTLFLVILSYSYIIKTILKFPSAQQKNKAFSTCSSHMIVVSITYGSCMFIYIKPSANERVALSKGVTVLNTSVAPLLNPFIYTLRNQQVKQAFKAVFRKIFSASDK
Summary of the method: as §1

[15] = tested on: T15, O7E24
T15 sequence (whole entry): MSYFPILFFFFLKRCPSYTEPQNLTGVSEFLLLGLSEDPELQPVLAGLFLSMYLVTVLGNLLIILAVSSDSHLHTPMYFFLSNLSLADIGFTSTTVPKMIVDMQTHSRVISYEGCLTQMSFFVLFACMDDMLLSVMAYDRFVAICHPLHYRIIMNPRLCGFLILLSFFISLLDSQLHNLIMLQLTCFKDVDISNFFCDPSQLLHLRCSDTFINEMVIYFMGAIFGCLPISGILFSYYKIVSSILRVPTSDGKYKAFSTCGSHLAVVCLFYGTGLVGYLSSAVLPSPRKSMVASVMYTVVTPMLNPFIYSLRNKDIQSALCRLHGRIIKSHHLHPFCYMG
Summary of the method: as §1

[16] = molecular target: T16, OR10A3 (Homo sapiens) (UniProt P58181)
T16 sequence (whole entry): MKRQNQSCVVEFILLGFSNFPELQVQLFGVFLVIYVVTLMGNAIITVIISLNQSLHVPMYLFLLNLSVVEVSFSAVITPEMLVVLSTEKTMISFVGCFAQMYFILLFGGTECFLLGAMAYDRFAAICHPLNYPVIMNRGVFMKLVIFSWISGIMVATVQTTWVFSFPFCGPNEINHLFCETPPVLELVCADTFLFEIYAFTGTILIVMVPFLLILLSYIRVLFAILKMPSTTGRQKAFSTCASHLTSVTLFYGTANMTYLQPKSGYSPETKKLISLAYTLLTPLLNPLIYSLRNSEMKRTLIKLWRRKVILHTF
Summary of the method: as §1

Measured: odorant receptor agonist call

CCCCCC(=O)O
inactive: all assays above

CCC=CCCO
inactive: all assays above

CC(=O)C(C)=O
inactive: all assays above
